Test results taken from patent EP0180615B1 (priority 1984, dated 1995).

Assay: general procedure: Boc solid-phase peptide synthesis; chloromethylated polystyrene resin; p-Methylbenzhydrylamine (pMBHA) resin; dicyclohexylcarbodiimide; preformed symmetrical anhydride
Conditions: whole synthesis, reversed phase HPLC, acetate salt

PEPTIDE1{R.S.S.C.F.G.G.R.I.D.R.I.G.A.Q.S.G.L.G.C.N.S.F.R.Y}$PEPTIDE1,PEPTIDE1,4:R3-20:R3$$$V2.0
final HPLC purity: minimum 97% purity

PEPTIDE1{R.S.S.C.F.G.G.R.M.D.R.I.G.A.Q.S.G.L.G.C.N.S.F.R.Y}$PEPTIDE1,PEPTIDE1,4:R3-20:R3$$$V2.0
final HPLC purity: minimum 97% purity

Some peptides are written in HELM: one residue between dots, names in brackets for other building blocks, links after the first $.
